End groups of sequences in plain letters are not given here.
What was measured:
[1] = peptide synthesis; conditions: whole synthesis, quantitative chromatography, LC-MS, acetate
[2] = peptide made by a vendor; conditions: whole synthesis, quantitative chromatography, LC-MS, acetate

Sequence	final purity (method not given) [1]	final HPLC purity [2]
GVRPDGFAHIRDFVSRIVRRLNIGPSKV (GVR28)	96%	>95%
SFVARNTFKRVRNGFLMRKVAVFFSNTPTRASP (SFV33)	96%	>95%
